PubChem BioAssay AID2685 (National Center for Advancing Translational Sciences (NCATS), 2010)
Some of the results follow. Shown are side measurements of this screen, not its main read-out; they come without a call. Compounds called inactive in the main read-out are mostly missing here. Potencies come from curve fits of mixed quality, noted in brackets.

Assay: qHTS Assay for Lipid Storage Modulators in Drosophila S3 Cells;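 as to cell number change: cells counted by Cell Tracker Red CMTPX staining in the red channel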
Settings: BODIPY lipid droplet fluorescence, 18-24 h; for cell number change: measured here: cell count max response, cells fed with added oleic acid
Summary of the method: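 Laser-scanning cytometry quantifies lipid droplet accumulation (500–530 nm total intensity; droplet/cell object ratio) in oleic acid-fed (400 uM added) Drosophila S3 cells treated with a concentration series. 20 uM Triacsin C defined 100% inhibition.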

[1] = measured here: lipid fluorescence (Fed channel) AC50, cells fed with added oleic acid
[2] = measured here: cell number channel AC50, cells fed with added oleic acid

Row | SMILES | cell number change [%] | AC50 [1] | AC50 [2]
1 | Cc1ccc(NC(=O)CSc2nnc(/N=C/N(C)C)s2)cc1 | -62.3 |  | 
2 | CC(C)Nc1nc2ccccc2c(=O)[nH]1 | 9.59 | 29.1 µM [rising, single point] | 
3 | Cc1c(C(=O)NCCN(C)C)oc2ccc(S(=O)(=O)N3CCC4(CC3)OCCO4)cc12 | 13.9 |  | 
4 | CCNC(=O)COC(=O)c1ccc(S(=O)(=O)N2CCCCCC2)cc1 | 7.43 |  | 
5 | Cc1nc2[nH]c(=S)n(C)c(=O)c2nc1C | -40.5 | 23.1 µM [falling, partial curve, poor fit] | 16.4 µM [falling, partial curve]
6 | C=CCNC(=S)NC1CC(C)(C)NC(C)(C)C1 | -26.5 | 0.146 µM [falling, full curve] | 
7 | Cn1nnnc1SCC(=O)Nc1ccccc1C(N)=O | -10.8 | 1.16 µM [falling, partial curve, poor fit] | 1.16 µM [falling, single point]
8 | CC(O)(CS(=O)(=O)Cc1cccc(C(F)(F)F)c1)C(=O)Nc1cccc(C(F)(F)F)c1 (configuration not stated) | 12.4 |  | 0.13 µM [rising, full curve, poor fit]
9 | COc1ccc(C2NC(=O)NC(O)(C(F)(F)F)C2C(=O)c2ccccc2)cc1OC (configuration not stated) | 14.9 | 2.06 µM [falling, partial curve, poor fit] | 
10 | CC(=O)Nc1nc(C=C(Cl)Cl)cs1 | 1.89 | 4.61 µM [falling, full curve] | 
11 | CCOCCCNC(=O)C1CCN(S(=O)(=O)CC)CC1 | -7.72 | 0.146 µM [falling, full curve, poor fit] | 
12 | CCCOc1ccc(N2C(=O)CC(S/C(N)=N/N=C(\C)c3cccs3)C2=O)cc1 (configuration not stated) | -25.4 | 20.6 µM [falling, single point] | 
13 | CN(CC(=O)Nc1ccc(Cl)c(C(F)(F)F)c1)C(=O)c1cccc2cccnc12 | -2.06 | 4.11 µM [rising, full curve, poor fit] | 
14 | CC(C)N=C(NS(=O)(=O)c1ccc(Br)cc1)c1ccc(Cl)cc1 | -6.21 | 2.91 µM [falling, single point] | 
15 | Nn1c(N2CCCCC2)nc2ccccc21 | 0.806 | 2.91 µM [rising, partial curve] | 3.26 µM [rising, single point]
16 | CC1CC1C(=O)Nc1cc(S(=O)(=O)N2CCOCC2)ccc1N1CCCC1 (configuration not stated) | 39.7 |  | 3.26 µM [falling, single point]
17 | Cc1ccc(S(=O)(=O)CC(=O)N2CCCCCC2)cc1 |  | 0.00411 µM [rising, full curve, poor fit] | 
18 | O=C(O)C1CCN(S(=O)(=O)c2cccc3nsnc23)CC1 |  | 6.51 µM [falling, single point] | 
19 | C=CCNC(=O)c1cc(-c2ccc(Br)cc2)on1 | 26.6 | 8.2 µM [rising, partial curve] | 
20 | O=C1Nc2ccc([N+](=O)[O-])cc2OC1CCN1CCN(Cc2ccc3c(c2)OCO3)CC1 (configuration not stated) | -48.4 |  | 

Looked up above.
`CC(C)N=C(NS(=O)(=O)c1ccc(Br)cc1)c1ccc(Cl)cc1` – AC50 [1]: 2.91 µM [falling, single point]
`CN(CC(=O)Nc1ccc(Cl)c(C(F)(F)F)c1)C(=O)c1cccc2cccnc12` – cell number change [%]: -2.06

Additional results

Row | SMILES | cell number change [%] | AC50 [1] | AC50 [2]
21 | CC(C)CCN(C(=O)c1csnn1)C(C(=O)NC1CCCC1)c1ccccc1 (configuration not stated) | -10.5 | 3.55 µM [falling, partial curve] | 
22 | COc1ccc(C(=O)N/N=C/c2sc(N3CCOCC3)nc2-c2ccccc2)cc1OC | 48.2 |  | 2.91 µM [rising, full curve]
23 | CC1CCCCC1NS(=O)(=O)c1ccc2c(c1)CC(=O)N2C (configuration not stated) | 14.9 |  | 
24 | CC(C)C[C@H](N)C(=O)N1CCC(C(=O)N[C@H](C(=O)NCc2ccc(F)cc2)C(C)C)CC1 | 23 | 0.82 µM [falling, single point] | 
25 | CC(C)N(Cc1ccccc1)C(=S)NCCN1CCOCC1 | -14.7 | 0.1 µM [rising, full curve, poor fit] | 
26 | CCC(C)[C@H](NC(=O)OC(C)(C)C)C(=O)N/N=C/C1=Cc2ccccc2OC1 (some centres not stated) | -35.7 | 14.6 µM [falling, partial curve] | 
27 | O=C(CCN=C1NS(=O)(=O)c2ccccc21)N1CCc2ccccc2C1 | 41.7 |  | 5.17 µM [rising, partial curve]
28 | CCSc1nnc(C)c2ccccc12 | 11.2 |  | 0.164 µM [falling, full curve, poor fit]
29 | Cc1ccc(NC(=O)CN(C)C(C)C(=O)Nc2ccc(S(=O)(=O)N3CCCC3)cc2)cc1 (configuration not stated) |  | 0.164 µM [rising, full curve, poor fit] | 3.66 µM [rising, partial curve]
30 | CCC(=O)Nc1cc(C(C)C)c(O)cc1C | -9.14 | 29.1 µM [falling, single point] | 
31 | CCOC(=O)N1CCN(C(=O)Nc2ccccc2Cl)CC1 | -31.7 | 3.66 µM [falling, full curve] | 3.66 µM [falling, full curve]
32 | O=C(N/N=C/c1c(F)cccc1Cl)C1CC1 | 18.8 | 13 µM [rising, single point] | 
33 | O=C(Cc1ccc(NC2=NC3CS(=O)(=O)CC3S2)cc1)NCCc1ccccc1 (configuration not stated) | -0.576 | 2.59 µM [rising, full curve] | 
34 | COc1cc(OC)nc(NC(=O)NS(=O)(=O)c2ccc(F)cc2)n1 | 2.98 |  | 6.51 µM [rising, single point]
35 | O=C(Nc1ccc2c(c1)OCCO2)c1ccc2nccnc2c1 | -9.09 |  | 
36 | Cc1ccc(SCC(=O)NC(=O)NC2CCCC2)c(C)c1 | 85 |  | 20.6 µM [rising, partial curve]
37 | COc1cccc(C(=O)N/N=c2\sc3ccccc3n2C)c1 | -9.79 | 8.2 µM [rising, partial curve] | 6.51 µM [rising, single point]
38 | CCCCC1=CC2=CC(=O)C(C)(OC(=O)CC)C(=O)C2=CN1Cc1ccccc1 (configuration not stated) | -32.4 | 7.31 µM [falling, partial curve] | 10.3 µM [falling, partial curve]
39 | COCCNC(=O)c1onc(CSc2cc(C)cc(C)c2)c1C(=O)NCCOC |  | 6.51 µM [rising, single point] | 
40 | O=C(CSc1ccccn1)N1CCN(C(=O)CSc2ccccn2)CC1 | 90.5 |  | 29.1 µM [rising, single point]
